Data published in article doi:10.1101/2023.09.18.558310.

Protein sequences, listed by entry. Tags and fused reporters are not part of them. Lines headed by an entry give the natural chain unless they say otherwise; changes in a name come on top.
UniProt Q9CAJ0: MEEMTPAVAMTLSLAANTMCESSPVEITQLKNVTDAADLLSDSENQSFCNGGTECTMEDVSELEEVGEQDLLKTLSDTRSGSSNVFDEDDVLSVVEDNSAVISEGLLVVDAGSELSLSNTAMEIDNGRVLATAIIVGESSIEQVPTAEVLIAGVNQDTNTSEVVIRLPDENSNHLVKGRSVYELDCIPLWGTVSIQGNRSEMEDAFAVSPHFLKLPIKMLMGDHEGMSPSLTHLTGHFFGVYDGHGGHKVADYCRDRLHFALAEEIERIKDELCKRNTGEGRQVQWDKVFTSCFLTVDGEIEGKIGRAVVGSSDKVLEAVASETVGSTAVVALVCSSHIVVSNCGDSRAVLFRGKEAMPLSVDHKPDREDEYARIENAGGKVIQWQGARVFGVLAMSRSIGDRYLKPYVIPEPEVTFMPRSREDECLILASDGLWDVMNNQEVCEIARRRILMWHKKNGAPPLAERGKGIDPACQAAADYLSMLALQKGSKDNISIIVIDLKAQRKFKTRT

Key:
[1] = molecular target: HAB1-BD (Arabidopsis) (UniProt Q9CAJ0); experiment: two-hybrid
[2] = molecular target: YFPN-HAB1 (Arabidopsis) (UniProt Q9CAJ0); experiment: split reporter
[3] = molecular target: HAB1-mGFP5 (Arabidopsis) (UniProt Q9CAJ0); experiment: co-IP

B1: CAR1-AD (protein, UniProt Q9FHP6 1-168)
chain: MENLVGLLRIHVKRGVNLAIRDISSSDPYIVVHCGKQKLKTRVVKHSVNPEWNDDLTLSVTDPNLPIKLTVYDYDLLSADDKMGEAEFHIGPFIEAIKFAHQLGPGLPNGTIIKKIEPSRKNCLSESSHIVLNQGKIVQNMFLRLQHVECGEVELQLEWIDVPGSRGI
[1]
  binding: binds

B2: CAR1-YFPC (protein, UniProt Q9FHP6 1-168)
chain: MENLVGLLRIHVKRGVNLAIRDISSSDPYIVVHCGKQKLKTRVVKHSVNPEWNDDLTLSVTDPNLPIKLTVYDYDLLSADDKMGEAEFHIGPFIEAIKFAHQLGPGLPNGTIIKKIEPSRKNCLSESSHIVLNQGKIVQNMFLRLQHVECGEVELQLEWIDVPGSRGI
[2]
  binding: binds

B3: CAR1-mCherry (protein, UniProt Q9FHP6 1-168)
chain: MENLVGLLRIHVKRGVNLAIRDISSSDPYIVVHCGKQKLKTRVVKHSVNPEWNDDLTLSVTDPNLPIKLTVYDYDLLSADDKMGEAEFHIGPFIEAIKFAHQLGPGLPNGTIIKKIEPSRKNCLSESSHIVLNQGKIVQNMFLRLQHVECGEVELQLEWIDVPGSRGI
[3]
  binding: binds

No constants are given. Whether binding was seen depends on the method and setting. A result given as binding can be weak or reduced; the word gives no strength. For part of these data: Sequences can lack the tags named with a protein. For part of these data: Binding seen in cells or lysates may run through a third protein.
